Experimental findings from US20100055033A1 are described below.

The chains behind the UniProt entries cited, without tags or fusion partners. Residues count along the entry.
UniProt P08069, residues 31-932: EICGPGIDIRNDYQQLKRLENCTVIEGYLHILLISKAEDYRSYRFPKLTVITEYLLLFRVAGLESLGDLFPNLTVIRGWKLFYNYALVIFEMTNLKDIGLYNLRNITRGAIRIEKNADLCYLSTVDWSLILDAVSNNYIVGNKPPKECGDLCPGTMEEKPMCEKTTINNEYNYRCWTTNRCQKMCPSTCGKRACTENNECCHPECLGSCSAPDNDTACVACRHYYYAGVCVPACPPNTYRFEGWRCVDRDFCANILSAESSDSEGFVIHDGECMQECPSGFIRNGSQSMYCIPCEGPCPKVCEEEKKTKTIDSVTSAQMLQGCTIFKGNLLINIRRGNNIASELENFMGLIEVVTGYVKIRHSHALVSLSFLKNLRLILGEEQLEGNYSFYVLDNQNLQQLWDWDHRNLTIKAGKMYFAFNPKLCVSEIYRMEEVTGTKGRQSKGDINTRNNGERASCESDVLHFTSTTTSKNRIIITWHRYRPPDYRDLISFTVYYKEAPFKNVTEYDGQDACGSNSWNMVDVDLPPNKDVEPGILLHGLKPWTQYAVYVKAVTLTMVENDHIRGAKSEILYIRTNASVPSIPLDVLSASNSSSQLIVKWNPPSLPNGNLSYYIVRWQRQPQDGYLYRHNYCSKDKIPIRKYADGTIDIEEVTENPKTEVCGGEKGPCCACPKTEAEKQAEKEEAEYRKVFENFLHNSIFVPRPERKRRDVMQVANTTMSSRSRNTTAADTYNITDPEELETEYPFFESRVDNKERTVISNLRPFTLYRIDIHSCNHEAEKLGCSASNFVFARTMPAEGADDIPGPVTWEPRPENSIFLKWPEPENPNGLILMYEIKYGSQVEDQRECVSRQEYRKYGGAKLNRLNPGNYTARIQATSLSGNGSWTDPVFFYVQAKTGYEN
UniProt P01344, residues 25-91: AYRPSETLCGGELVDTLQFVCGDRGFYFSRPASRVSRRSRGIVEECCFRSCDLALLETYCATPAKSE

Test [1] deals with insulin-like growth factor 1 receptor (soluble IGF-IR) (UniProt P08069). Nature of the test: competition ELISA: IGF-II at 500 nM against the binding of IGF-I (50 nM) to soluble IGF-IR.
Test [2] has the same target. Description: competition ELISA: IGF-II against the binding of IGF-I to IGF-1 receptor, one concentration (not given for this figure).

No constants are given. Whether binding was seen depends on the method and setting. Some results given as binding are weak or reduced against the parent protein; the word gives no strength.

For the substance “human insulin-like growth factor II (from UniProt P01344 25-91) (ligand)”, the binding result in test [1] and in test [2] was “binds” each time.
